Assay results published in the supplement of paper PMC4604168 (melanoma cell lines).
Some of the results follow. Single values are uncertain, as repeats are few or missing.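 Cells were imaged in 1,536-well plates, and nuclei stained with an antibody against cleaved PARP were counted against all DNA-stained nuclei to give the apoptosis fraction. Screening doses were chosen to leave most cells alive, and resting and induced cleaved-PARP levels differ strongly between cell lines.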

Tests used:
Assay in all cases: cleaved PARP positive nuclei fraction relative to DMSO control; melanoma cells; higher = more apoptosis
Details in all cases: library dose: low library concentration; 72 h
WM115 = test system: WM115
WM1716 = test system: WM1716
WM1745 = test system: WM1745
WM3526 = test system: WM3526
WM3619 = test system: WM3619
WM451Lu = test system: WM451Lu

SMILES | cleaved PARP positive nuclei fraction (WM115) [%] | cleaved PARP positive nuclei fraction (WM1716) [%] | cleaved PARP positive nuclei fraction (WM1745) [%] | cleaved PARP positive nuclei fraction (WM3526) [%] | cleaved PARP positive nuclei fraction (WM3619) [%] | cleaved PARP positive nuclei fraction (WM451Lu) [%]
Cc1nc(Nc2ncc(C(=O)Nc3c(C)cccc3Cl)s2)cc(N2CCN(CCO)CC2)n1 [dasatanib] + O=C(Oc1ccc([N+](=O)[O-])cc1)N1CCC(C(O)(c2ccc3c(c2)OCO3)c2ccc3c(c2)OCO3)CC1 [JZL184] (first compound 0.004 µM, partner dose 1 µM) | 92.2 | 179 | 160 | 86 | 99.7 | 59.5
N.N.[Cl][Pt][Cl] [cisplatin] + C[C@@H](Oc1cc(-c2cnn(C3CCNCC3)c2)cnc1N)c1c(Cl)ccc(F)c1Cl [Crizotinib] (first compound 1.6 µM, partner dose 0.2 µM) | 62.7 | 61 | 91.9 | 79.3 | 69.5 | 97.7
N.N.[Cl][Pt][Cl] [cisplatin] + C=CCn1c(=O)c2cnc(Nc3ccc(N4CCN(C)CC4)cc3)nc2n1-c1cccc(C(C)(C)O)n1 [MK1775] (first compound 1.6 µM, partner dose 0.02 µM) | 124 | 70.3 | 95.5 | 59.9 | 107 | 152
Clc1ccc(Nc2nnc(Cc3ccncc3)c3ccccc23)cc1 [vatalanib] + C/C(O)=C(\C#N)C(=O)Nc1cc(Br)ccc1Br [LFM-A13] (first compound 2 µM, partner dose 2 µM) | 171 | 59.3 | 107 | 59.7 | 91.9 | 55
C[As](C)SC[C@H](NC(=O)CC[C@H](N)C(=O)O)C(=O)NCC(=O)O [Darinaparsin] + C=CCn1c(=O)c2cnc(Nc3ccc(N4CCN(C)CC4)cc3)nc2n1-c1cccc(C(C)(C)O)n1 [MK1775] (first compound 0.4 µM, partner dose 0.02 µM) | 247 | 243 | 105 | 145 | 188 | 152
CC(=O)O[C@@]12CO[C@@H]1C[C@H](O)[C@@]1(C)C(=O)[C@H](O)C3=C(C)[C@@H](OC(=O)[C@H](O)[C@@H](NC(=O)OC(C)(C)C)c4ccccc4)C[C@@](O)([C@@H](OC(=O)c4ccccc4)[C@H]21)C3(C)C [Docetaxel] + C[As](C)SC[C@H](NC(=O)CC[C@H](N)C(=O)O)C(=O)NCC(=O)O [Darinaparsin] (first compound 0.0001 µM, partner dose 0.4 µM) | 298 | 253 | 181 | 62.7 | 157 | 110
NC1(c2ccc(-c3nc4ccn5c(=O)[nH]nc5c4cc3-c3ccccc3)cc2)CCC1 + O=C(Oc1ccc([N+](=O)[O-])cc1)N1CCC(C(O)(c2ccc3c(c2)OCO3)c2ccc3c(c2)OCO3)CC1 [JZL184] (first compound 0.4 µM, partner dose 1 µM) | 111 | 30.8 | 88.8 | 89.7 | 104 | 81.9
Cn1cnc2c(F)c(Nc3ccc(Br)cc3Cl)c(C(=O)NOCCO)cc21 [selumetinib] + C/C(O)=C(\C#N)C(=O)Nc1cc(Br)ccc1Br [LFM-A13] (first compound 0.015 µM, partner dose 2 µM) | 119 | 90.1 | 94.6 | 252 | 113 | 329
Cc1cc(N2CCOCC2)cc2[nH]c(-c3c(NC[C@@H](O)c4cccc(Cl)c4)cc[nH]c3=O)nc12 + O=C(Oc1ccc([N+](=O)[O-])cc1)N1CCC(C(O)(c2ccc3c(c2)OCO3)c2ccc3c(c2)OCO3)CC1 [JZL184] (first compound 0.2 µM, partner dose 1 µM) | 71.6 | 114 | 135 | 158 | 108 | 119
C[C@@H](N)c1ccc(C(=O)Nc2ccnc3[nH]ccc23)cc1 + O=C(Oc1ccc([N+](=O)[O-])cc1)N1CCC(C(O)(c2ccc3c(c2)OCO3)c2ccc3c(c2)OCO3)CC1 [JZL184] (first compound 0.4 µM, partner dose 1 µM) | 78.5 | 288 | 113 | 47.5 | 105 | 68.9
Oc1nc(-c2ccc(C(F)(F)F)cc2)nc2c1CSCC2 + O=C(Oc1ccc([N+](=O)[O-])cc1)N1CCC(C(O)(c2ccc3c(c2)OCO3)c2ccc3c(c2)OCO3)CC1 [JZL184] (first compound 2 µM, partner dose 1 µM) | 128 | 137 | 140 | 225 | 90.5 | 27.3
CCCS(=O)(=O)Nc1ccc(F)c(C(=O)c2c[nH]c3ncc(Cl)cc23)c1F + C/C(O)=C(\C#N)C(=O)Nc1cc(Br)ccc1Br [LFM-A13] (first compound 0.08 µM, partner dose 2 µM) | 97.4 | 148 | 177 | 169 | 98.4 | 69.5
C/C(O)=C(\C#N)C(=O)Nc1cc(Br)ccc1Br + COc1cc(N2CCC(N3CCN(C)CC3)CC2)ccc1Nc1ncc(Cl)c(Nc2ccccc2S(=O)(=O)C(C)C)n1 [NVP-TAE684] (first compound 2 µM, partner dose 0.08 µM) | 116 | 51.9 | 117 | 79.4 | 93.9 | 28.6
C/C(O)=C(\C#N)C(=O)Nc1cc(Br)ccc1Br + c1cc(-c2cnn3cc(-c4ccc(OCCN5CCCCC5)cc4)cnc23)ccn1 [Dorsomorphin] (first compound 2 µM, partner dose 0.4 µM) | 86.7 | 146 | 109 | 76 | 65.1 | 151
C/C(O)=C(\C#N)C(=O)Nc1cc(Br)ccc1Br + Oc1nc(-c2ccc(C(F)(F)F)cc2)nc2c1CSCC2 [XAV939] (first compound 2 µM, partner dose 2 µM) | 33.1 | 188 | 118 | 65.2 | 87.2 | 47.1
O=C(Nc1cc(C(F)(F)F)cc(C(F)(F)F)c1)c1cc(Cl)ccc1O + N.N.[Cl][Pt][Cl] [cisplatin] (first compound 0.016 µM, partner dose 1.6 µM) | 113 | 71 | 94.7 | 131 | 76 | 54.1
Cn1c(Nc2ccc(C(F)(F)F)cc2)nc2cc(Oc3ccnc(-c4ncc(C(F)(F)F)[nH]4)c3)ccc21 + O=C(Oc1ccc([N+](=O)[O-])cc1)N1CCC(C(O)(c2ccc3c(c2)OCO3)c2ccc3c(c2)OCO3)CC1 [JZL184] (first compound 0.08 µM, partner dose 1 µM) | 135 | 109 | 130 | 205 | 153 | 328
C[C@@H](N)c1ccc(C(=O)Nc2ccnc3[nH]ccc23)cc1 + C[As](C)SC[C@H](NC(=O)CC[C@H](N)C(=O)O)C(=O)NCC(=O)O [Darinaparsin] (first compound 0.4 µM, partner dose 0.4 µM) | 94.3 | 108 | 117 | 35 | 78.3 | 144
Cc1nc(Nc2ncc(C(=O)Nc3c(C)cccc3Cl)s2)cc(N2CCN(CCO)CC2)n1 [dasatanib] + C/C(O)=C(\C#N)C(=O)Nc1cc(Br)ccc1Br [LFM-A13] (first compound 0.004 µM, partner dose 2 µM) | 71 | 160 | 164 | 65.7 | 87.4 | 143
C[C@]12O[C@H](C[C@]1(O)CO)n1c3ccccc3c3c4c(c5c6ccccc6n2c5c31)CNC4=O [Lestaurtinib] + c1cc(-c2cnn3cc(-c4ccc(OCCN5CCCCC5)cc4)cnc23)ccn1 [Dorsomorphin] (first compound 0.004 µM, partner dose 0.4 µM) | 174 | 24.6 | 98.4 | 189 | 85.9 | 91.1
Cn1cc(C2=C(c3cn(C4CCN(Cc5ccccn5)CC4)c4ccccc34)C(=O)NC2=O)c2ccccc21 [Enzastaurin] + Cc1cc(SCc2sc(-c3ccc(C(F)(F)F)c(F)c3)nc2C)ccc1OCC(=O)O [GW0742] (first compound 0.8 µM, partner dose 2 µM) | 50.3 | 217 | 96.4 | 77 | 118 | 187
Cn1cc(C2=C(c3cn(C4CCN(Cc5ccccn5)CC4)c4ccccc34)C(=O)NC2=O)c2ccccc21 [Enzastaurin] + Cc1cc(Nc2cc(N3CCN(C)CC3)nc(/C=C/c3ccccc3)n2)n[nH]1 [ENMD2076] (first compound 0.8 µM, partner dose 0.04 µM) | 76.6 | 120 | 102 | 113 | 78.1 | 242
C[C@]12O[C@H](C[C@]1(O)CO)n1c3ccccc3c3c4c(c5c6ccccc6n2c5c31)CNC4=O [Lestaurtinib] + COc1cc2c(Oc3ccc4[nH]c(C)cc4c3F)ncnc2cc1OCCCN1CCCC1 [cediranib] (first compound 0.004 µM, partner dose 0.4 µM) | 56 | 72.9 | 84.3 | 119 | 87.1 | 90.1
C[C@]12O[C@H](C[C@]1(O)CO)n1c3ccccc3c3c4c(c5c6ccccc6n2c5c31)CNC4=O [Lestaurtinib] + CS(=O)(=O)CCNCc1ccc(-c2ccc3ncnc(Nc4ccc(OCc5cccc(F)c5)c(Cl)c4)c3c2)o1 [lapatinib] (first compound 0.004 µM, partner dose 0.8 µM) | 138 | 64.1 | 86.1 | 170 | 86 | 82
CC(=O)O[C@@]12CO[C@@H]1C[C@H](O)[C@@]1(C)C(=O)[C@H](O)C3=C(C)[C@@H](OC(=O)[C@H](O)[C@@H](NC(=O)OC(C)(C)C)c4ccccc4)C[C@@](O)([C@@H](OC(=O)c4ccccc4)[C@H]21)C3(C)C [Docetaxel] + Cc1cc(SCc2sc(-c3ccc(C(F)(F)F)c(F)c3)nc2C)ccc1OCC(=O)O [GW0742] (first compound 0.0001 µM, partner dose 2 µM) | 340 | 274 | 149 | 162 | 178 | 73.6

Shown in markdown: part of the list above

| SMILES | cleaved PARP positive nuclei fraction (WM115) [%] | cleaved PARP positive nuclei fraction (WM1716) [%] | cleaved PARP positive nuclei fraction (WM1745) [%] | cleaved PARP positive nuclei fraction (WM3526) [%] | cleaved PARP positive nuclei fraction (WM3619) [%] | cleaved PARP positive nuclei fraction (WM451Lu) [%] |
| --- | --- | --- | --- | --- | --- | --- |
| Cn1c(Nc2ccc(C(F)(F)F)cc2)nc2cc(Oc3ccnc(-c4ncc(C(F)(F)F)[nH]4)c3)ccc21 + O=C(Oc1ccc([N+](=O)[O-])cc1)N1CCC(C(O)(c2ccc3c(c2)OCO3)c2ccc3c(c2)OCO3)CC1 [JZL184] (first compound 0.08 µM, partner dose 1 µM) | 135 | 109 | 130 | 205 | 153 | 328 |
| Cn1cc(C2=C(c3cn(C4CCN(Cc5ccccn5)CC4)c4ccccc34)C(=O)NC2=O)c2ccccc21 [Enzastaurin] + Cc1cc(Nc2cc(N3CCN(C)CC3)nc(/C=C/c3ccccc3)n2)n[nH]1 [ENMD2076] (first compound 0.8 µM, partner dose 0.04 µM) | 76.6 | 120 | 102 | 113 | 78.1 | 242 |
